Assay results: PMC5506826
Residue numbers refer to the chain shown, from its start. For some of these results: Negatives hold for the conditions tested. For some of these results: At least one verdict was read from the data and is not stated in words by the source. Protein sequences can lack the tags named with them.

Experiments:
[1] = test system: T1, 6His-SUMO-RegA (Acidithiobacillus ferrooxidans ATCC 23270T); experiment: EMSA; conditions: EMSA: 40 mM Tris-HCl pH 8, 100 mM KCl, 0.5 mM DTT, 0.05% NP40, 2 mM spermidine, 0.2 mM EDTA, 8% glycerol, 15 ng/ul herring sperm DNA, 30 min room temperature, recombinant protein, residues 1-190, protein details: N-terminal 6His-SUMO, probe letters rebuilt from the primers and the genome
T1 sequence (looked up): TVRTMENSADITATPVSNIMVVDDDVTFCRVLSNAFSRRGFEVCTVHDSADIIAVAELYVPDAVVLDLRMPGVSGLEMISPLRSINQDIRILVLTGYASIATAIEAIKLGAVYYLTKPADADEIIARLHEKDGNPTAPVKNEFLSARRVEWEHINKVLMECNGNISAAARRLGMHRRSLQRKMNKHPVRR

[2] = test system: T1, 6His-SUMO-RegA (Acidithiobacillus ferrooxidans ATCC 23270T); experiment: DLS; conditions: Dv50 9.22 nm vs 7.58 nm free, tetramer; recombinant protein; residues 1-190; protein details: N-terminal 6His-SUMO; label: 5' Cy5 reverse primer (EMSA); probe letters rebuilt from the primers and the genome
[3] = test system: T2, RegA-HTH-6His (Acidithiobacillus ferrooxidans ATCC 23270T); experiment: EMSA; conditions: EMSA: 40 mM Tris-HCl pH 8, 100 mM KCl, 0.5 mM DTT, 0.05% NP40, 2 mM spermidine, 0.2 mM EDTA, 8% glycerol, 15 ng/ul herring sperm DNA, 30 min room temperature; recombinant protein; residues 140-190; protein details: C-terminal 6His (pET21); label: 5' Cy5 reverse primer; probe letters rebuilt from the primers and the genome
T2 sequence (looked up): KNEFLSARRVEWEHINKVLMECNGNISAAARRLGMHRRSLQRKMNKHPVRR

[4] = test system: T3, 6His-SUMO-RegA_D68A D67A (Acidithiobacillus ferrooxidans ATCC 23270T); experiment: EMSA; conditions: same threshold as wild type; EMSA: 40 mM Tris-HCl pH 8, 100 mM KCl, 0.5 mM DTT, 0.05% NP40, 2 mM spermidine, 0.2 mM EDTA, 8% glycerol, 15 ng/ul herring sperm DNA, 30 min room temperature; recombinant protein; residues 1-190; protein details: N-terminal 6His-SUMO; label: 5' Cy5 reverse primer; probe letters rebuilt from the primers and the genome
T3 sequence (looked up): T1 sequence (looked up) with D67A

[5] = test system: T4, 6His-SUMO-RegA_A102S A101S (Acidithiobacillus ferrooxidans ATCC 23270T); experiment: EMSA; conditions: same threshold as wild type; EMSA: 40 mM Tris-HCl pH 8, 100 mM KCl, 0.5 mM DTT, 0.05% NP40, 2 mM spermidine, 0.2 mM EDTA, 8% glycerol, 15 ng/ul herring sperm DNA, 30 min room temperature; recombinant protein; residues 1-190; protein details: N-terminal 6His-SUMO; label: 5' Cy5 reverse primer; probe letters rebuilt from the primers and the genome
T4 sequence (looked up): T1 sequence (looked up) with A101S

| Sequence | binding result [3] | binding result ([1]; label: 5' Cy5 reverse primer) | also measured |
| --- | --- | --- | --- |
| CGTTAAGGCGACGCAGTCAGCGCGTACGAATGTCTTGGCGGCGTTTTGGACCGATAGTGAACCGATACCTTCCTCCCGTAAAACTGGCTCATCCCTACCCATCGCAAAGGTTTCGCGTCATGACCTGAGGTAGGAGCCGTATGCGGTAATTCCGCTCGTACGGATCTGTGCGGGGGGCGGTGGGTAACTACTGCCTCTACCGCGACCCATCACGGTGACCTTGAGATGTCTCTTCCAACACCTTTGTGTTGAGGACGCATGGCGTGGAGATATCTTGGCATGTCAGTTTTTGGGACATTTTAGTGATCGCGGCATATAATTAAAAGGCCAGATTAACATGTTTAAATAACGTTAGCACATAATTCTTTTCTTATGTTCTTTATTTAAGTTATTGTGTTTTAGTGGATCCGTATCGTGATG (double strand) [rus 420 bp] | – | – | binding result ([1]; label: 5' Cy5 reverse primer (EMSA)): binds; binding result [2]: binds |
| GTAGCCCCGCCCGATACCCCATGATGAATATTGCGCCGCATATTTAACACCTTAAATGAAGAAACGTCAGGTTATCTGCGTTTGGGAGTTTATCTGGATTAATTAATATATGTACCGTGGCGATCCTGTTTTCGTGGTCTATAGTTCAATAAACTTAACCAATCATCATACGCTGCATGCAAGTATACTCATAACATCATATAACGCATACCGCAAGACATGAATTCGTATTTTATAATAAACACCAATGGCCAGGGCAAGATAACCATCCGCCCTGGCCACCGGGATCTACACTAACAAAGCGTCGTTACCCGAACAACAACCATCCGCGAATTACTTGACAACGATCTTACCGAACATACCGGTGGCGGCATGCCCCGGTATCTGACATACGTAGTAGTAAGTGCCCGCCGTCGGATGCCAGGTAAAATCCGTATATCCGAACTTGCCATCTTTTGGGACCGGACTGAATCCTGTTCCTGCAACAATGGGGTCGATCACCGGCATAACCGCATAAGGAGGTCCTTTTTTGGTGATGTCAAAACTATGACCGAATCCCTTGTTGGT (double strand) [cta 568 bp] | binds | binds | – |
| ATATTTCTCCCTGACGGACTTCAGACCATCCGCGATATGACAGGATAGCGATCACTATCCGATTACCTTCCCCGACACTGCATGCAGATCAGGATTTCTATGGGCTTCCACCGCACAGCGGCCGCCGAACCACGGCGTCCGGGCTGCCGGCGATTCTGCAGCAGGCCGGCATTGGCACCAGTTTTCACCACTTCCGTAAATCATATAAATTTATACTATTACTGCCTATTGATTACCTGGCAGTAAAACTAGTGCAGGCGGGGGCGCAAAGCAATAGGGATTTGCCTCAAATATTTTTGGGCTTATGTAAATAGTATTAGTGATGTGCGTGCGCCCAAAAGATAAATCATAATATTACCTTTATCTTATTAAGACGCATCTGAAAACCATCTGTG (double strand) [cyo 395 bp] | binds | binds | – |
| CAAATGAGATCGAAATACGCGCTCGTTGGCCCTTTTGGGACAACTTCACGGCCGACCTGTGCCGTTTGGCCCTTCCCCACTCCTTCCAGATAACCCACGTTGTAAGAATAACAAAATAAAACAGCATCCTGTAATCATTATGCGGCTGGCACAATACATGCATAAAACATCTCGTGCTGCCGCGGGATTCTCATTTTCATTTACTCATTGAATATCATAAGCGGGATGCAGCCATAAATATAACGCTGGTTGTGTTATTGGGAGCGAGCATTTAATTCTGTTGATATCGTTTATGGGAATAACAAAAGTGGAGACGCAGCTGAAAAAGCGAAGCTGATGACAGAGTACGTTATACCTCACCAAATGGATTGGAGACTTGATATGCC (double strand) [tet 386 bp] | binds | binds | binding result [4]: binds; binding result [5]: binds |
| CGATGAGAACAGTGGATGATAACGCGGAGCCAAATAGCCGCAGCACAGCTAATAGACATGCATTATGTACATATAAGGATGATGAATGAATAAGTTTTATTATGATCCTGTCGTTGTCTGGATATGAATAAGTGACGTAATTTCAGTCGTTAACGCGAGATTTATGGTTTTTTCCGCTGGTCACATCGATAACGTGTCATAGATCAAAGGCCAACTATCTCATTAAATATAAAAATTACTTATAGAATTGGCAAAAATCGTAATTTTCAATTGACTGCAAAGTGTTTTATGTTTCGAGGCCGCTACAACAGATGGGTAATCAATGCATGGCTAGGTTTTTATCAGCAGTTCCTAATGGTGATTTGC (double strand) [doxII 366 bp] | – | binds | – |
| AATCCGTACATGTGCCACTCGCTTGCATGAAAGAAAATTGACCGGGGATTCTACATGAAACGCCCGGCAGGCTAACCCCCAAGCCGCATCATGAACACTCTGGCGGAACGGTTGGGGTCATTTACAAAGTGATGGTGCTCCGGCTTGTCCCGCCAGATCCCTTGGGTAATGGCCTCCGCGATCTGTCCGTCACTGGCTGCTCCGCGTATGAGAGGCAAAAGTTCCAACCCCCCATCCTGCCCCAGACAATACACCAGACGCCCCGTTGCAGTGAGGCGTACACGGTTGCAGGTTGCGCAAAAATCGTCGCTGATGGGCGTAATGAAG (double strand) [hdr 327 bp] | binds | binds | – |
| CCCCAGTCATGAAGCCTACCGTGGTAATCGCCCCCCTTGCGGTTAAGCTAACTACTTCTGGTAAACCCCACTTCCATGGTGTGACGGGCGGTGTG (double strand) [rrs 16S 95 bp] | – | – | binding result ([1]; label: 5' Cy5 forward primer): no binding |
| GCCTGTTTGTAGATATTGTTCTGGCCCCTACGGGTAATCCGCATATCTGTTCCTCATCAAAGCAACGGCCTGTACCTCGACCAAGACGCTTCCCAGGTTTCCCAGATATCGGTTCGACCAATTCGCCATCTTCACGTTATCACGCATATGAATTCCCCCGTACGTTGCCAGACGTCGACTGTTTTACTCGTGATGGCAGGAATCGTTACTAAAGGCCCTCAGATTCCATCTGGAGCTTGGATATACCTATCCCGTCACGCTGCTCCCAAGTTCGAACTTCGACCGGCACGCACCATCCGATGCTTGGATTGGGTCAGGTATGTCGGATAACCGACGGTGTAATCACGGCAACCTCGCCAGAGAACACCGCACCGGAAAGCTTACTTTCTGATCGCCATGTTTGTAACTAATAATATTATATTGTTCGCATGTATTGTTGTTCCGTGTTTTTAACGGCCGCTGAATTTGATGTCCCGCTCTACGACCTGGACAGATTTGTAACTGTGTGATAACACCTGATATGATGAGGTTTCATATAGCTGGGTTAGTTCGTTCCCCTGTGGAGC (double strand) [reg 566 bp] | binds | binds | – |
| AAAGAGTACCTCCAGTTCCCAGGGATCGACCCGCAGCGTCCCAAAGGGGTTATCCCGCGTGGCCGGACGCCAGAAGAGATTCGGCAACCATCCTTTGTTGCGCACTGCGGGGGCCAGATAAAACGCCCGACAACGTGCGGCTACCTCCGCTGGCGCGGGAATCGGGATCACATCCAGGTTTTCCATAATACCCCTTTCAAGTCGTTGCCGATGCGGGTCGCCACCCACGGCAACGATCATAAAGCCATTTGCTTGGCAACGGAATCATTGTGGAGCATAGTGGTCAACTATTCACATGGGGGGTACAGTTTGTTCCACGGTGTGTATTC (double strand) [hdrB 329 bp] | – | binds | – |
| GTCAGCGTGCAGATCATGCAGCAGCTTCAGGAGCGGGGCTGGATCACCACCAGCGGACACCGGGATACACCGGGTCGCCCCGCGCTTTGGGTGACAACACCCGGTTTTCTGGAGCATTTTTCATTGCCGTCGCTGGCTGCGTTGCCGGAGATCGTGACGATGGAAGAGGGCCAGACGGATATACAGGCAGGCATAACGGACTGAAACCTTATTAAAAATATATTTGGAAAGTTGCAACAATCTAATTTGACGAATTGGGAAGGTTCTATAATATTCCGACTAGAAATCCAATTGGGCTCGGTAAGCGAAATCCGATGTTGTGGCTTACCTTGAATCTGGCGCGGTAAAGTACGAGAGGAGCA (double strand) [sqr 362 bp] | binds | binds | binding result [4]: binds; binding result [5]: binds |
| GGCATATCAAGTCTCCAATCCATTTGGTGAGGTATAACGTACTCTGTCATCAGCTTCGCTTTTTCAGCTGCGTCTCCACTTTTGTTATTCCCATAAACGATATCAACAGAATTAAATGCTCGCTCCCAATAACACAACCAGCGTTATATTTATGGCTGCATCCCGCTTATGATATTCAATGAGTAAATGAAAATGAGAATCCCGCGGCAGCACGAGATGTTTTATGCATGTATTGTGCCAGCCGCATAATGATTACAGGATGCTGTTTTATTTTGTTATTCTTACAACGTGGGTTATCTGGAAGGAGTGGGG (double strand) [tet 312 bp] | – | binds | – |
